This note sets out measurements from publication PMC8869655, “Identification of the Kinase-Substrate Recognition Interface between MYPT1 and Rho-Kinase” (Biomolecules, 2022).

These are yes or no findings as the source states them, for the method shown. In cells and extracts the contact can be indirect. For part of these data: Binding can be weak; no strength is given. Where a sequence is shown, tags or fusion partners need not be part of it.

Holding throughout (assay): pull-down; GST-MYPT1 fragment and GFP-kinase fragment co-transfected in COS7 cells; lysate incubated with Glutathione Sepharose beads 1 h at 4 °C in 20 mM Tris-HCl pH 7.5, 1 mM EDTA, 1 mM DTT, 50 mM NaCl, 0.5% NP-40; washed three times; immunoblot with anti-GST or anti-GFP
Assay [1] has as its target T1, GST-MYPT1-684–758 aa (rat) (UniProt Q10728).
T1 sequence: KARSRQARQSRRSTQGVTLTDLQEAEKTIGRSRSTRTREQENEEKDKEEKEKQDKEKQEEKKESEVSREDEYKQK

Assay [2] addresses T2, GST-MYPT1-684–868 aa with both DM1 and DM2 deleted (rat) (UniProt Q10728).
T2 sequence: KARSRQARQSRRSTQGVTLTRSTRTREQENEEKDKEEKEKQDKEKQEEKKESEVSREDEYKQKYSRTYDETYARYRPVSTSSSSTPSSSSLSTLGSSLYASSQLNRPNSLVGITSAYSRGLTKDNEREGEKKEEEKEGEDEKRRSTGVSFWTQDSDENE

The target of assay [3] is T3, GST-MYPT1-684–868 aa with DM2 deleted (rat) (UniProt Q10728).
T3 sequence: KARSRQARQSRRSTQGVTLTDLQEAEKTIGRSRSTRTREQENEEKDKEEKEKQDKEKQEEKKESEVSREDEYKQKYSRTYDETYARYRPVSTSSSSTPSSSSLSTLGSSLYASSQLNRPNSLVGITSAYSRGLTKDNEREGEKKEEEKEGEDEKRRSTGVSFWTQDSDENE

In assay [4] the target is T4, GST-MYPT1-758–868 aa (rat) (UniProt Q10728).
T4 sequence: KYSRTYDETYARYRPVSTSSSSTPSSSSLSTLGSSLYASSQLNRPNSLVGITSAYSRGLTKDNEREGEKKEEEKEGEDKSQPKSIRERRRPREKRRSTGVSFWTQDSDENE

Assay [5] concerns the target T5, GST-MYPT1-758–868 aa with deletion of the 822-835 aa region (rat) (UniProt Q10728).
T5 sequence: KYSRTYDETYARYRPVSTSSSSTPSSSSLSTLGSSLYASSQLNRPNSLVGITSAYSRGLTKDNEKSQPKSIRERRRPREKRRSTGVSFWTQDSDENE

For assay [6], the target named is T6, GST-MYPT1-684–868 aa with DM1 deleted (rat) (UniProt Q10728).
T6 sequence: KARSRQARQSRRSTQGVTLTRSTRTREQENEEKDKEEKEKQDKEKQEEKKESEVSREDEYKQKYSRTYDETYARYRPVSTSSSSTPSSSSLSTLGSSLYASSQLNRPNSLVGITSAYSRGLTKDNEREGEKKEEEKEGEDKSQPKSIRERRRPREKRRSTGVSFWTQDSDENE

Assay [7] deals with T7, GST-MYPT1-758–868 aa with deletion of the 814–822 aa region (rat) (UniProt Q10728).
T7 sequence: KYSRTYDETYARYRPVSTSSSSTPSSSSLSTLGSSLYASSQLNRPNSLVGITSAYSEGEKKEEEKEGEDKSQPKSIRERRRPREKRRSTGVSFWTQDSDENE

Assay [8] concerns the target T8, GST-MYPT1-684–868 aa (rat) (UniProt Q10728).
T8 sequence: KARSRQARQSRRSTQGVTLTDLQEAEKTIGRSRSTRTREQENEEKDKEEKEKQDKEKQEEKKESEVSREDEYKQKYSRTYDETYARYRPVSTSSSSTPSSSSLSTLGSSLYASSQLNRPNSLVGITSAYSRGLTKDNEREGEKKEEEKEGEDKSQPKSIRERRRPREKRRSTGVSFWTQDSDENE

For the substance “GFP-Rho-kinase-cat (6–418 aa, core catalytic fragment) (bovine) (domain or fragment)”, the binding entry in assay [1] is recorded as “binds”; in assay [2] it was “no binding”; in assay [3], “binds weakly”; in assay [4], “binds”; in assay [5], “binds”; in assay [6], “binds weakly”. Also, the binding entry in assay [7] is on record as “binds”; in assay [8] it was “binds weakly”.

Turning to “Rho-kinase part of the coiled-coil fragment (418–553 aa) (bovine) (domain or fragment)”, the binding result in assay [8] is “binds weakly”.
